Reference: US7105290 (PROCTER AND GAMBLE, dated 2006)
No constants are given. Whether binding was seen depends on the method and setting. Some results given as binding are weak or reduced against the parent protein; the word gives no strength.

By UniProt entry, the sequences of proteins in these tests, tags left out. Where a name states a change or a piece, a line headed by the entry shows the natural chain unless it says otherwise.
UniProt Q05438: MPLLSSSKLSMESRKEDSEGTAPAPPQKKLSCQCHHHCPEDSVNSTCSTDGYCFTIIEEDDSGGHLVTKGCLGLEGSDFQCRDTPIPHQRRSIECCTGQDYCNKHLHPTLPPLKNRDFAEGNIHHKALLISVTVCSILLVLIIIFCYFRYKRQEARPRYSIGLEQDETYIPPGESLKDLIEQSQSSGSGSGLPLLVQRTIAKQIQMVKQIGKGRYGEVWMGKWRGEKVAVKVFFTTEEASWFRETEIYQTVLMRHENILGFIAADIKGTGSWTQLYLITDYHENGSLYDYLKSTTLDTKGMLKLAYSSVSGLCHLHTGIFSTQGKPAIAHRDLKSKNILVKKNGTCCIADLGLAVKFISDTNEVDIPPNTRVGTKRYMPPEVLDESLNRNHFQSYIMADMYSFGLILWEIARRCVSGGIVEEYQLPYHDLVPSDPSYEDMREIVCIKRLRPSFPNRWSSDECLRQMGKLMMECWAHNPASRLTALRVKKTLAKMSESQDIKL

Target: BRK-2 co-expressed with t-BRK-3 (BRK-2/t-BRK-3 complex) (chicken; human) (UniProt Q05438)
Test: competition, 10 nM unlabeled ligand against [^125I]-BMP-4; crosslinking and immunoprecipitation with antiserum 1380

B1: digit-removed BMP-2 (ligand, UniProt P12643 294-396, looked up)
chain: SSCKRHPLYVDFSDVGWNDWIVAPPGYHAFYCHGECPFPLADHLNSTNHAIVQTLVNSVNSKIPKACCVPTELSAISMLYLDENEKVVLKNYQDMVVEGCGCR
binding: binds
